Measured values published in the supplement of paper PMC12823440, “Inhibitors supercharge kinase turnover through native proteolytic circuits” (Nature, 2025).
This is one part of the list. The calls rarely recur for the same compound in another form.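 Kinases, fused to nanoluciferase, were expressed in K562 cells; luminescence was measured every 4 h from 2 to 18 h as percent of control (DMSO = 100%, positive control = 0%). A time point is decreased if signal falls significantly (2 sigma). Hits were called by the authors by a rule that is not shown; the count of time points alone does not decide it.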

By UniProt entry, the sequences of proteins in these tests, tags left out.
UniProt P29317, whole entry: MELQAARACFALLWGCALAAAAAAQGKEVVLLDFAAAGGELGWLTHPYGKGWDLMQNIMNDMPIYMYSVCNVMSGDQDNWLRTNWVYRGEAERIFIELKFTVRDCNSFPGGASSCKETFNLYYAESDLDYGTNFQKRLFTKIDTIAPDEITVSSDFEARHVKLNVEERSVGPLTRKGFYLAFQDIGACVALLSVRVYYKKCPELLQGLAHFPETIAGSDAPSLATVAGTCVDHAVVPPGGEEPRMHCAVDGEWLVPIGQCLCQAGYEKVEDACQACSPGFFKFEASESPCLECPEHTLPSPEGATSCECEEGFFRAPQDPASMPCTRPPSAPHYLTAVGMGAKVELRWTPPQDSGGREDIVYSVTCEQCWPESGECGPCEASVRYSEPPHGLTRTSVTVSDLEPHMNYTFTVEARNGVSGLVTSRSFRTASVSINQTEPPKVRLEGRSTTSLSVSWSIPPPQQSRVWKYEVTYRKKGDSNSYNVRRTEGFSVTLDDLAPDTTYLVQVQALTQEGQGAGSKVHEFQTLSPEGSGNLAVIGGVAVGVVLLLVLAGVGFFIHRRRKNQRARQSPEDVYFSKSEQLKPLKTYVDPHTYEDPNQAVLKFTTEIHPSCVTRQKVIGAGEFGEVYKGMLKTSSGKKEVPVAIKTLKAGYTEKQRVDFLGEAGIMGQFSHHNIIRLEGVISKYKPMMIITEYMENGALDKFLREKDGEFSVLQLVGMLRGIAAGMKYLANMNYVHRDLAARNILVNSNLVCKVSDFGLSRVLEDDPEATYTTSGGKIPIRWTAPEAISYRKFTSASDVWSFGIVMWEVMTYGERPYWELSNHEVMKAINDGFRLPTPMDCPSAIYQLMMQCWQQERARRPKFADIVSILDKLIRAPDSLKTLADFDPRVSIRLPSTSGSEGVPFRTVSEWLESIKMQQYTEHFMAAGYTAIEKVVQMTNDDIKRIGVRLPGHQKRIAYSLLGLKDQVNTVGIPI
UniProt P21860, whole entry: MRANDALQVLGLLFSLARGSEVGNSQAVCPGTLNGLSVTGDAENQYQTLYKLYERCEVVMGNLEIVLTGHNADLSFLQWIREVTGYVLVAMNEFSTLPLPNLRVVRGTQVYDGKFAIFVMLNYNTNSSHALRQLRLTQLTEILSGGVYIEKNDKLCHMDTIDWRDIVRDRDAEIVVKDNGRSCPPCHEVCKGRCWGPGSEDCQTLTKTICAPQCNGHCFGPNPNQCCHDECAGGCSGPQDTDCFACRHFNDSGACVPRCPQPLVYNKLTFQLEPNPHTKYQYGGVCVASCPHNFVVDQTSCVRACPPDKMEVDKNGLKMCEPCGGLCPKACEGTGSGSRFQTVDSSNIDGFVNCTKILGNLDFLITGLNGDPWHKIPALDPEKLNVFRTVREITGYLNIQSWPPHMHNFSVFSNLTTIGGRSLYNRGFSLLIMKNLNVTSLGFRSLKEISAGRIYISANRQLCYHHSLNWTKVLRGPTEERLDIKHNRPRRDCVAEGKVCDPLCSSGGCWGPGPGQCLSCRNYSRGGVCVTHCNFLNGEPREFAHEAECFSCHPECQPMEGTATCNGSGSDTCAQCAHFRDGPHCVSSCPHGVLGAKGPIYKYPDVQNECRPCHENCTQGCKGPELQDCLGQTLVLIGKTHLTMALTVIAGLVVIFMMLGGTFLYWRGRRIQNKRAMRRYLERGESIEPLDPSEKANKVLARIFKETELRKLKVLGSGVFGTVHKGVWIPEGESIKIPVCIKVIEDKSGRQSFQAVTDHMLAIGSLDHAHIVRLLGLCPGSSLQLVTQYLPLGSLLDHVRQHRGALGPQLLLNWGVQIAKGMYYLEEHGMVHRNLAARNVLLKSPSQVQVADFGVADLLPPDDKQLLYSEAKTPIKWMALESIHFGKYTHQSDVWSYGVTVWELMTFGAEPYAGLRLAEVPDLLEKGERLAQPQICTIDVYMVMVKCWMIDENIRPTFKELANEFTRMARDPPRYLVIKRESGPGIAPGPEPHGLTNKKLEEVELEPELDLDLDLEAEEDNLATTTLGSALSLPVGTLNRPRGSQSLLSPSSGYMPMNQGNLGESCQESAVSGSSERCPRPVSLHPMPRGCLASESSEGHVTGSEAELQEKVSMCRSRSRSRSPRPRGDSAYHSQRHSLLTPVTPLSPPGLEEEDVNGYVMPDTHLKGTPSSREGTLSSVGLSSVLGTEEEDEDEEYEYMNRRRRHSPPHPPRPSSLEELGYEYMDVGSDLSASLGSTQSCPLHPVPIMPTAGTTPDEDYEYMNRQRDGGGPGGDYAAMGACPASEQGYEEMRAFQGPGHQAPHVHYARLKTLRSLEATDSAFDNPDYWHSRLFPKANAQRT
UniProt Q15303, whole entry R711C: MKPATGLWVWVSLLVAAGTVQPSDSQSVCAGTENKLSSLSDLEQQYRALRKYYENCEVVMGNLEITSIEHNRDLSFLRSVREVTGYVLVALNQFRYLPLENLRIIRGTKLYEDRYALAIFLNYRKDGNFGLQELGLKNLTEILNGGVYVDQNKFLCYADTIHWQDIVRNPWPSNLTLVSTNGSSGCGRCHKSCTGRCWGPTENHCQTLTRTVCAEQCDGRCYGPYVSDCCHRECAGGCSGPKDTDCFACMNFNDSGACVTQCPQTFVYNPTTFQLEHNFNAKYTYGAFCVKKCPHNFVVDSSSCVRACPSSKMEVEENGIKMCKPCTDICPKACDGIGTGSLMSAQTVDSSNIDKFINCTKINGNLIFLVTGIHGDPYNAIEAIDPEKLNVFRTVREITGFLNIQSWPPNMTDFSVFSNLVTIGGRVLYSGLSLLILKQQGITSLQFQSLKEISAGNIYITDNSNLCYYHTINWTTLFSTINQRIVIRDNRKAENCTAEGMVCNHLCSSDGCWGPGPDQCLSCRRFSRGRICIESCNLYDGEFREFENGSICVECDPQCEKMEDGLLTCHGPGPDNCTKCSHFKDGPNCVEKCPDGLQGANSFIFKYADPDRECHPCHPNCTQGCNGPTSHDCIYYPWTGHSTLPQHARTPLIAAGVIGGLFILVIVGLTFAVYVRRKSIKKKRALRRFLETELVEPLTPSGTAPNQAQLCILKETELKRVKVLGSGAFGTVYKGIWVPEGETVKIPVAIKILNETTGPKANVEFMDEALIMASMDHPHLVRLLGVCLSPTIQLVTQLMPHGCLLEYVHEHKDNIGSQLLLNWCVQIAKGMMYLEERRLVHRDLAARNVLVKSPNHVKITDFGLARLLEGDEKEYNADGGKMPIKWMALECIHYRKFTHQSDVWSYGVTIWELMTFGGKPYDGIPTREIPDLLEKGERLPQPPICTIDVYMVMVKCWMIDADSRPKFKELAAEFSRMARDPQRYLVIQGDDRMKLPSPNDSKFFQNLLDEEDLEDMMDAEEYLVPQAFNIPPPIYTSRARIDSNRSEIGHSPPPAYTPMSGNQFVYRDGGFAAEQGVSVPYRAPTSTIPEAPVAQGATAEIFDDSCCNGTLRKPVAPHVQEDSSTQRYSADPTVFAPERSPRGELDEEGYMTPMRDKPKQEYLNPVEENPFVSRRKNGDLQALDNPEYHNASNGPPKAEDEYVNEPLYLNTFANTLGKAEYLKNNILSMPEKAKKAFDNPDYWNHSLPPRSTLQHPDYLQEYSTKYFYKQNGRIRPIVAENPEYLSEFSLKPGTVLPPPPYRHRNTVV

Tests used:
Test in all cases: kinase-Nluc reporter destabilization hit call (1 = scored as downregulated) (binary); higher = compound decreases kinase abundance
Conditions in all cases: K562, 2-18 h
EGFR = EGFR (UniProt P00533)
EGFR_G719S = EGFR_G719S (UniProt P00533)
EGFR_G719S_T790M = EGFR_G719S_T790M (UniProt P00533)
EGFR_L718V = EGFR_L718V (UniProt P00533)
EGFR_L858R = EGFR_L858R (UniProt P00533)
EGFR_L861Q = EGFR_L861Q (UniProt P00533)
EGFR_T790M = EGFR_T790M (UniProt P00533)
EPHA2 = EPHA2 (UniProt P29317)
ERBB3 = ERBB3 (UniProt P21860)
[1] = biological target: ERBB4_R711C (clone: ERBB4_mut) (UniProt Q15303)

Measured: kinase-Nluc reporter destabilization hit call

COc1ccc(-c2c[nH]c3nccc(-c4ccsc4)c23)c(OC)c1
inactive: EGFR; 10 µM 0 | EGFR_G719S; 10 µM 0 | EGFR_G719S_T790M; 10 µM 0 | EGFR_L718V; 10 µM 0 | EGFR_L858R; 10 µM 0 | EGFR_L861Q; 10 µM 0 | EGFR_T790M; 10 µM 0 | EPHA2; 10 µM 0 | ERBB3; 10 µM 0 | [1]; 10 µM 0

CN1CCN(c2ccc3nc(-c4c(N)c5c(F)cccc5[nH]c4=O)[nH]c3c2)CC1 [Dovitinib (lactate)]
inactive: EGFR; 2.5 µM 0 | EGFR_G719S; 2.5 µM 0 | EGFR_G719S_T790M; 2.5 µM 0 | EGFR_L718V; 2.5 µM 0 | EGFR_L858R; 2.5 µM 0 | EGFR_L861Q; 2.5 µM 0 | EGFR_T790M; 2.5 µM 0 | EPHA2; 2.5 µM 0 | ERBB3; 2.5 µM 0

C=CC(=O)N1CCC[C@@H](n2nc(-c3ccc(Oc4ccccc4)cc3)c3c(N)ncnc32)C1 [Ibrutinib]
inactive: EGFR; 2.5 µM 0 | EGFR_G719S; 2.5 µM 0 | EGFR_G719S_T790M; 2.5 µM 0 | EGFR_L718V; 2.5 µM 0 | EGFR_L858R; 2.5 µM 0 | EGFR_L861Q; 2.5 µM 0 | EGFR_T790M; 2.5 µM 0 | EPHA2; 2.5 µM 0 | ERBB3; 2.5 µM 0 | [1]; 2.5 µM 0

Cc1ccc(O)cc1Nc1ccnc(Nc2cccc(C(N)=O)c2)n1 [Lck inhibitor 2]
inactive: EGFR; 10 µM 0 | EGFR_G719S; 10 µM 0 | EGFR_G719S_T790M; 10 µM 0 | EGFR_L718V; 10 µM 0 | EGFR_L858R; 10 µM 0 | EGFR_L861Q; 10 µM 0 | EGFR_T790M; 10 µM 0 | EPHA2; 10 µM 0 | ERBB3; 10 µM 0 | [1]; 10 µM 0

CCCCCC1CC1CC1CC1CCCCCCCC(=O)OC (stereo not drawn)
inactive: EGFR; 10 µM 0 | EGFR_G719S; 10 µM 0 | EGFR_G719S_T790M; 10 µM 0 | EGFR_L718V; 10 µM 0 | EGFR_L858R; 10 µM 0 | EGFR_L861Q; 10 µM 0 | EGFR_T790M; 10 µM 0 | EPHA2; 10 µM 0 | ERBB3; 10 µM 0 | [1]; 10 µM 0

C=CC(=O)N1CCC([C@@H]2CCNc3c(C(N)=O)c(-c4ccc(Oc5ccccc5)cc4)nn32)CC1 [Zanubrutinib]
inactive: EGFR; 10 µM 0 | EGFR_G719S; 10 µM 0 | EGFR_G719S_T790M; 10 µM 0 | EGFR_L718V; 10 µM 0 | EGFR_L858R; 10 µM 0 | EGFR_L861Q; 10 µM 0 | EGFR_T790M; 10 µM 0 | EPHA2; 10 µM 0 | ERBB3; 10 µM 0 | [1]; 10 µM 0

Retrieved one by one from above (2):
Cc1ccc(O)cc1Nc1ccnc(Nc2cccc(C(N)=O)c2)n1 [Lck inhibitor 2]
inactive: EGFR; 10 µM 0 | EGFR_G719S; 10 µM 0 | EGFR_G719S_T790M; 10 µM 0 | EGFR_L718V; 10 µM 0 | EGFR_L858R; 10 µM 0 | EGFR_L861Q; 10 µM 0 | EGFR_T790M; 10 µM 0 | EPHA2; 10 µM 0 | ERBB3; 10 µM 0 | [1]; 10 µM 0

CN1CCN(c2ccc3nc(-c4c(N)c5c(F)cccc5[nH]c4=O)[nH]c3c2)CC1 [Dovitinib (lactate)]
inactive: EGFR; 2.5 µM 0 | EGFR_G719S; 2.5 µM 0 | EGFR_G719S_T790M; 2.5 µM 0 | EGFR_L718V; 2.5 µM 0 | EGFR_L858R; 2.5 µM 0 | EGFR_L861Q; 2.5 µM 0 | EGFR_T790M; 2.5 µM 0 | EPHA2; 2.5 µM 0 | ERBB3; 2.5 µM 0

Next part.

Cc1cc2ncnn2cc1Nc1ncc2c(n1)n(C1CCOCC1)c(=O)n2C
inactive: EGFR; 10 µM 0 | EGFR_G719S; 10 µM 0 | EGFR_G719S_T790M; 10 µM 0 | EGFR_L718V; 10 µM 0 | EGFR_L858R; 10 µM 0 | EGFR_L861Q; 10 µM 0 | EGFR_T790M; 10 µM 0 | EPHA2; 10 µM 0 | ERBB3; 10 µM 0 | [1]; 10 µM 0

C=CC(=O)N1C[C@@H](Nc2ncnc3[nH]ccc23)CC[C@H]1C [(2R,5S)-Ritlecitinib]
inactive: EGFR; 10 µM 0 | EGFR_G719S; 10 µM 0 | EGFR_G719S_T790M; 10 µM 0 | EGFR_L718V; 10 µM 0 | EGFR_L858R; 10 µM 0 | EGFR_L861Q; 10 µM 0 | EGFR_T790M; 10 µM 0 | EPHA2; 10 µM 0 | ERBB3; 10 µM 0 | [1]; 10 µM 0

CC(=O)c1c(C)c2cnc(Nc3ccc(N4CCN(C(=O)CCCCCC(=O)N[C@H](C(=O)N5C[C@H](O)C[C@H]5C(=O)NCc5ccc(-c6scnc6C)cc5)C(C)(C)C)CC4)cn3)nc2n(C2CCCC2)c1=O
inactive: EGFR; 2.5 µM 0 | EGFR_G719S; 2.5 µM 0 | EGFR_G719S_T790M; 2.5 µM 0 | EGFR_L718V; 2.5 µM 0 | EGFR_L858R; 2.5 µM 0 | EGFR_L861Q; 2.5 µM 0 | EGFR_T790M; 2.5 µM 0 | EPHA2; 2.5 µM 0 | ERBB3; 2.5 µM 0 | [1]; 2.5 µM 0

CN1CCN(c2ccc3nc(-c4c(N)c5c(F)cccc5[nH]c4=O)[nH]c3c2)CC1 [Dovitinib]
inactive: EGFR; 2.5 µM 0 | EGFR_G719S; 2.5 µM 0 | EGFR_G719S_T790M; 2.5 µM 0 | EGFR_L718V; 2.5 µM 0 | EGFR_L858R; 2.5 µM 0 | EGFR_L861Q; 2.5 µM 0 | EGFR_T790M; 2.5 µM 0 | EPHA2; 2.5 µM 0 | ERBB3; 2.5 µM 0

Cc1cn(-c2cc(NC(=O)c3ccc(C)c(Nc4nccc(-c5cccnc5)n4)c3)cc(C(F)(F)F)c2)cn1 [Nilotinib]
inactive: EGFR; 2.5 µM 0 | EGFR_G719S; 2.5 µM 0 | EGFR_G719S_T790M; 2.5 µM 0 | EGFR_L718V; 2.5 µM 0 | EGFR_L858R; 2.5 µM 0 | EGFR_L861Q; 2.5 µM 0 | EGFR_T790M; 2.5 µM 0 | EPHA2; 2.5 µM 0 | ERBB3; 2.5 µM 0 | [1]; 2.5 µM 0

Cc1cnc(Nc2ccc(OCCN3CCCC3)cc2)nc1Nc1cccc(S(=O)(=O)NC(C)(C)C)c1 [Fedratinib]
inactive: EGFR; 2.5 µM 0 | EGFR_G719S; 2.5 µM 0 | EGFR_G719S_T790M; 2.5 µM 0 | EGFR_L718V; 2.5 µM 0 | EGFR_L858R; 2.5 µM 0 | EGFR_L861Q; 2.5 µM 0 | EGFR_T790M; 2.5 µM 0 | EPHA2; 2.5 µM 0 | ERBB3; 2.5 µM 0 | [1]; 2.5 µM 0

CC(C)N(CCC(=O)c1ccc2ccccc2c1)Cc1ccccc1
inactive: EGFR; 10 µM 0 | EGFR_G719S; 10 µM 0 | EGFR_G719S_T790M; 10 µM 0 | EGFR_L718V; 10 µM 0 | EGFR_L858R; 10 µM 0 | EGFR_L861Q; 10 µM 0 | EGFR_T790M; 10 µM 0 | EPHA2; 10 µM 0 | ERBB3; 10 µM 0 | [1]; 10 µM 0

CC#CC(=O)N1CCC[C@H]1c1nc(-c2ccc(C(=O)Nc3ccccn3)cc2)c2c(N)nccn12 [Acalabrutinib]
inactive: EGFR; 10 µM 0 | EGFR_G719S; 10 µM 0 | EGFR_G719S_T790M; 10 µM 0 | EGFR_L718V; 10 µM 0 | EGFR_L858R; 10 µM 0 | EGFR_L861Q; 10 µM 0 | EGFR_T790M; 10 µM 0 | EPHA2; 10 µM 0 | ERBB3; 10 µM 0 | [1]; 10 µM 0
